PubChem BioAssay AID1347076 (National Center for Advancing Translational Sciences (NCATS), 2019)
Screen size: about 400,000 compounds; about 13,000 (3.2%) were called active. The inconclusive results got no clear call from the source; some entries with a clear call stand among them for comparison. Calls follow the shape of the dose curve; as a rule, active = well fitted cell-killing curve with a large enough effect; inconclusive = small, poorly fitted or top-dose-only effect, or effect the other way; inactive = flat fitted curve, though single readings scatter. Potencies beside an inconclusive call are fits to weak or partial responses and may not hold up.

test: qHTS assay for MDR1-selective chemotherapeutics: Primary screen using the drug-selected MDR subline cells KB-V1; conditions: KB-V1 MDR cells viability, CellTiter-Glo, 72 h; activity change, negative = cytotoxicity: at 46.1 µM (top of the series); also: nearly all actives have a fitted effect of over 60% in size
Method in brief: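 KB-V1 MDR subline cells in DMEM (phenol-red free, 10% FBS) exposed to compounds in qHTS concentration series for 72 h at 37 degrees C. Viability read by CellTiter-Glo luminescence; concentration-effect curves fitted after normalization and correction.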
% is scaled to controls: 0 for no effect and ±100 for the full control effect; potency is read from the fitted curve at half-maximal effect.

Row | SMILES | Potency | activity change, negative = cytotoxicity
1 | O=C(CSc1c2c(nc3cc(Cl)ccc13)CCCC2)N1CCN(c2ccccc2F)CC1 | inconclusive: 18.4 µM [cytotoxic, single point] | 
2 | CCOC(=O)c1c(C)cc2c(CO)n[nH]c(=O)c2c1C | active: 0.82 µM | 
3 | CCOC(=O)c1c(C)oc2c1c(CN1CCN(CCO)CC1)c(O)c1ccccc12 |  | inactive: -28.4%
4 | Cn1cccc1-c1nc2ccccc2n1Cc1ccccc1 | inconclusive: 29.1 µM [cytotoxic, single point] | 
5 | Cc1cn2c(=O)c(S(=O)(=O)N3CCN(c4cc(Cl)ccc4C)CC3)c(C)nc2s1 |  | inactive: 13.9%
6 | O=C(NCCc1ccc(Cl)cc1)C1COc2ccccc2C1 (stereo unspecified) |  | inactive: 1.03%
7 | COc1ccc(Cl)cc1NC(=O)CN(C)C(=O)c1ccc(N2CCCCCC2)c([N+](=O)[O-])c1 | inconclusive: 5.8 µM [cytotoxic, partial curve] | 
8 | CC(=O)C1=C(O)C(=O)N(c2nccs2)C1c1ccccc1 (stereo unspecified) |  | inactive: 0%
9 | Cc1ccccc1C(=O)Nc1ccccc1C(=O)NCc1ccccc1 | active: 20.6 µM | 
10 | O=C(Nc1ccccc1)C1C2/C=C\CCCCC21 (stereo unspecified) |  | inactive: -18.1%
11 | O=C(Nc1cccc(-c2nc3cccnc3s2)c1)c1cccc(Br)c1 | inconclusive: 29.1 µM [cytotoxic, single point] | 
12 | CCOC(=O)c1ccc(NC(=O)c2cn(-c3ccccc3)nc2-c2ccc(OC)c(OC)c2)cc1 |  | inactive: 14.7%
13 | Cc1ccc(S(=O)(=O)N2CCN(S(C)(=O)=O)CC2)cc1 |  | inactive: 7.21%
14 | O=C1c2ccccc2-c2c1cccc2C(=O)N1CCN(C(=O)c2ccco2)CC1 | inconclusive: 1.46 µM [rising, full curve] | 
15 | COc1ccc(CC(=O)Nc2nc(-c3ccc(OC)c(OC)c3)cs2)cc1OC | inconclusive: 2.91 µM [cytotoxic, full curve] | 
16 | CC(C)C[C@H]1CNC(=S)N1C[C@H]1CCCN1C[C@H](Cc1ccccc1)N1C[C@H](Cc2ccc(O)cc2)N(CCc2ccccc2)C1=S | inconclusive: 29.1 µM [cytotoxic, single point] | 
17 | Cn1cnc2c(=O)sc3ccccc3c21 | inconclusive: 29.1 µM [cytotoxic, single point] | 
18 | Cc1ccc(N(CC(=O)NCc2ccco2)C(=O)CNS(=O)(=O)c2ccccc2)c(C)c1 |  | inactive: -13.9%
19 | COc1ccc(OC)c(NC(=O)CN(C)S(=O)(=O)c2ccc3nc(C)sc3c2)c1 | inconclusive: 10.3 µM [cytotoxic, partial curve] | 
20 | COc1ccc2c(Sc3ccc(Cl)cc3)c(C(=O)N3CCC(C)CC3)[nH]c2c1 |  | inactive: -8.15%
21 | CCC1=Nc2cc(C(=O)NCc3ccco3)ccc2Sc2ccc(Cl)cc21 | active: 1.46 µM | 
22 | CC1(C)Cc2c(sc3[nH]c(=S)n(Cc4ccccc4)c(=O)c23)CO1 | inconclusive: 16.4 µM [cytotoxic, single point] | 
23 | CCNC(=O)CC1C(=O)N(c2ccc(C)cc2)C(=O)N1CCC(C)C (stereo unspecified) | inactive | 
24 | CCCCc1ccc(/C=C(\C#N)C(N)=S)s1 |  | inactive: 14.5%

Row | SMILES | Potency | activity change, negative = cytotoxicity
25 | COCCN(C(=O)CSc1nncn1-c1ccccc1)c1c(N)n(Cc2ccccc2)c(=O)[nH]c1=O | inconclusive: 5.8 µM [rising, partial curve, poor fit] | 
26 | CCCNC(=O)N[C@H]1CC[C@@H](CCn2cc(-c3cccc(F)c3)nn2)O[C@@H]1CO |  | inactive: 2.89%
27 | O=C(O)c1ccc2c(c1)C(=O)N(C(Cc1ccc(O)cc1)C(=O)O)C2=O (stereo unspecified) | inconclusive: 14.6 µM [rising, partial curve] | 
28 | CCOc1ccc2nc(NC(=O)c3ccc(OC)c(S(=O)(=O)N4CCOCC4)c3)sc2c1 |  | inactive: 0%
29 | Cc1cccc(NC(=O)c2ccc([N+](=O)[O-])o2)c1C | inconclusive: 18.4 µM [cytotoxic, single point] | 
30 | Cc1cc(C)n(-c2ccc(C(=O)N3CCN(S(=O)(=O)c4cccc(Br)c4)CC3)cc2)n1 |  | inactive: -1.36%
31 | CC(C)C(=O)NNC(=O)CSc1ncnc2c1cnn2-c1ccccc1Cl | inconclusive: 25.9 µM [rising, single point] | 
32 | CCOC(=O)N1CC=C2C(C#N)=C(N)C(C#N)(C#N)[C@H](c3ccccc3OCC)[C@H]2C1 | inconclusive: 16.4 µM [cytotoxic, partial curve] | 
33 | COc1ccc(NC(=S)NCc2cccs2)cc1 |  | inactive: 0.637%
34 | COc1ccc(-c2csc(N(CCc3ccccc3)C(=O)COc3ccccc3)n2)cc1 | active: 16.4 µM | 
35 | COc1ccc(Cn2cc(F)c(=O)n(C)c2=O)cc1[N+](=O)[O-] |  | inactive: -1.76%
36 | CCOc1ccc(CCNC(=O)c2c(C)nn(-c3ccccc3)c2Cl)cc1OCC | inconclusive: 16.4 µM [cytotoxic, single point] | 
37 | Cc1nc2cc(NC(=O)Nc3ccc(Br)cc3)ccc2o1 | inconclusive: 11.6 µM [cytotoxic, partial curve] | 
38 | Cc1ccc(NC(=S)N(CCCN2CCOCC2)Cc2cccnc2)cc1C | inconclusive: 13 µM [cytotoxic, partial curve, poor fit] | 
39 | CC(C)(C)c1ccc(C(=O)Nc2sc3c(c2C(=O)O)CCC3)cc1 | inconclusive: 4.11 µM [cytotoxic, full curve] | 
40 | FC(F)Oc1ccc(NC(=S)NC23CC4CC(CC(C4)C2)C3)cc1 | active: 16.4 µM | 
41 | CCCOC(=O)C(=O)NNc1ccccc1 |  | inactive: -3.87%
42 | Cc1cccc(OCc2nnc(SCC(=O)c3cccs3)n2C)c1C | active: 16.4 µM | 
43 | CCOC(=O)/C(=C/C=C1\Sc2cc(OCC)c(OCC)cc2N1CC)C(C)=O | inconclusive: 13 µM [cytotoxic, single point] | 
44 | COc1cc([N+](=O)[O-])ccc1NC(=O)c1cccc(NC(=O)C(C)C)c1 | inconclusive: 11.6 µM [cytotoxic, partial curve] | 
45 | COc1ccc(-c2noc(-c3ccc(NCC4CCCO4)c([N+](=O)[O-])c3)n2)cc1 (stereo unspecified) | inconclusive: 5.8 µM [rising, partial curve] | 
46 | Cc1nc(SCC(=O)NCc2ccco2)c2c(C)c(C)sc2n1 | inconclusive: 18.4 µM [cytotoxic, partial curve, poor fit] | 
47 | CCOc1ccc(NC(=O)Cn2nnc(C(=O)NCCc3ccccc3)c2N)cc1 | inconclusive: 16.4 µM [rising, single point] | 
48 | Cc1cccc(C(=O)N2CCC(c3nc4ccccc4s3)CC2)c1 | inconclusive: 23.1 µM [cytotoxic, single point] | 

Row | SMILES | Potency | activity change, negative = cytotoxicity
49 | C[C@H](O)CC1=C[C@H](O)[C@@H](C)OC1=O | inconclusive: 2.31 µM [rising, full curve, poor fit] | 
50 | COc1ccc(C)cc1S(=O)(=O)N1CCN(C(=O)c2ncoc2-c2ccc(C)cc2)CC1 |  | inactive: -8.51%
51 | COc1cc(NC(=O)N2CCC3(CC2)Nc2ccccc2-n2cccc23)cc(OC)c1OC |  | inactive: -16.6%
52 | CCc1cccc2[nH]c3cc([N+](=O)[O-])ccc3c12 | active: 13 µM | 
53 | CC(=O)Nc1ccc(S(=O)(=O)N(Cc2ccco2)CC2CCCO2)cc1 (stereo unspecified) | inconclusive: 16.4 µM [cytotoxic, partial curve, poor fit] | 
54 | COc1ccc(Cl)cc1CNCCCSc1ncccn1 | inconclusive: 8.2 µM [cytotoxic, partial curve] | 
55 | O=C(c1cc(COc2ccc(F)cc2Cl)on1)N1CCCCC1c1cccnc1 (stereo unspecified) | inconclusive: 0.411 µM [cytotoxic, full curve, poor fit] | 
56 | Cc1c(O)ccc(/C=N/Nc2ncccc2[N+](=O)[O-])c1O | inconclusive: 2.06 µM [cytotoxic, full curve, poor fit] | 
57 | Cc1ccc(NC(=S)NCCCN2CCOCC2)cc1 | inconclusive: 23.1 µM [cytotoxic, partial curve, poor fit] | 
58 | Sc1nnc(-c2ccc(Cl)cc2)n1Cc1ccccc1 | inconclusive: 23.1 µM [cytotoxic, single point] | 
59 | Cc1noc(C)c1COc1cccc(C(=O)NCCc2c[nH]c3ccccc23)c1 | inconclusive: 23.1 µM [cytotoxic, single point] | 
60 | CC(Sc1ccccc1)C(=O)N1CCN(S(=O)(=O)c2cccc(Br)c2)CC1 (stereo unspecified) | inconclusive: 4.11 µM [cytotoxic, partial curve, poor fit] | 
61 | Cc1ccc2c(c1)N(CC(=O)NC1CCCc3ccccc31)C(=O)CO2 (stereo unspecified) | active: 16.4 µM | 
62 | CCCCC[C@H](C)N1C[C@H](COCc2ccccc2)Oc2cc(N3CC[C@@H](N(C)C)C3)ccc2S1(=O)=O | inconclusive: 20.6 µM [cytotoxic, single point] | 
63 | CCOc1ccc(CN(C)C(=O)CNC(=O)c2ccc3ccccc3c2)cc1OC | inconclusive: 5.17 µM [cytotoxic, partial curve] | 
64 | Clc1ccc(OCCCc2nc(-c3ccncc3)no2)c(Cl)c1 | inconclusive: 29.1 µM [cytotoxic, single point] | 
65 | CCCCC[C@H](C)N1C[C@@H](COCc2ccccc2)Oc2cc(N3CC[C@H](N(C)C)C3)ccc2S1(=O)=O | inconclusive: 16.4 µM [cytotoxic, single point] | 
66 | COc1ccc(Nc2nc(C)nc3c2nnn3Cc2ccccc2)cc1OC | inconclusive: 1.84 µM [cytotoxic, full curve] | 
67 | CC(C)OC(=O)CSc1nnc(-c2cccnc2)n1Cc1ccccc1 | active: 20.6 µM | 
68 | CCOC(=O)c1cc(-c2ccc(OC)cc2)nc2c1c(C)nn2CCC#N | inconclusive: 6.51 µM [cytotoxic, partial curve, poor fit] | 
69 | Cc1cc(=O)[nH]c(N)n1 | inconclusive: 5.17 µM [rising, partial curve] | 
70 | O=C(CCSc1ccc(Cl)cc1)NN=C1CCCCCC1 |  | inactive: 7.51%
71 | COc1ccc(-c2nnc3n(CCc4ccccc4)c(=O)c4ccccc4n23)cc1OC |  | inactive: 3.23%

Another view of some results above:
Row,SMILES,Potency,"activity change, negative = cytotoxicity"
59,Cc1noc(C)c1COc1cccc(C(=O)NCCc2c[nH]c3ccccc23)c1,"inconclusive: 23.1 µM [cytotoxic, single point]",
60,CC(Sc1ccccc1)C(=O)N1CCN(S(=O)(=O)c2cccc(Br)c2)CC1 (stereo unspecified),"inconclusive: 4.11 µM [cytotoxic, partial curve, poor fit]",
61,Cc1ccc2c(c1)N(CC(=O)NC1CCCc3ccccc31)C(=O)CO2 (stereo unspecified),active: 16.4 µM,
